Laboratory results as given in patent US8697385.
Results are given in words; binding and its absence hold for the method and conditions named. In cells and extracts the contact can be indirect. Some results given as binding are weak or reduced against the parent protein; the word gives no strength. Sequences can lack the tags named with a protein.

Protein sequences, listed by entry. Tags and fused reporters are not part of them. Residues count along the entry.
UniProt P35580: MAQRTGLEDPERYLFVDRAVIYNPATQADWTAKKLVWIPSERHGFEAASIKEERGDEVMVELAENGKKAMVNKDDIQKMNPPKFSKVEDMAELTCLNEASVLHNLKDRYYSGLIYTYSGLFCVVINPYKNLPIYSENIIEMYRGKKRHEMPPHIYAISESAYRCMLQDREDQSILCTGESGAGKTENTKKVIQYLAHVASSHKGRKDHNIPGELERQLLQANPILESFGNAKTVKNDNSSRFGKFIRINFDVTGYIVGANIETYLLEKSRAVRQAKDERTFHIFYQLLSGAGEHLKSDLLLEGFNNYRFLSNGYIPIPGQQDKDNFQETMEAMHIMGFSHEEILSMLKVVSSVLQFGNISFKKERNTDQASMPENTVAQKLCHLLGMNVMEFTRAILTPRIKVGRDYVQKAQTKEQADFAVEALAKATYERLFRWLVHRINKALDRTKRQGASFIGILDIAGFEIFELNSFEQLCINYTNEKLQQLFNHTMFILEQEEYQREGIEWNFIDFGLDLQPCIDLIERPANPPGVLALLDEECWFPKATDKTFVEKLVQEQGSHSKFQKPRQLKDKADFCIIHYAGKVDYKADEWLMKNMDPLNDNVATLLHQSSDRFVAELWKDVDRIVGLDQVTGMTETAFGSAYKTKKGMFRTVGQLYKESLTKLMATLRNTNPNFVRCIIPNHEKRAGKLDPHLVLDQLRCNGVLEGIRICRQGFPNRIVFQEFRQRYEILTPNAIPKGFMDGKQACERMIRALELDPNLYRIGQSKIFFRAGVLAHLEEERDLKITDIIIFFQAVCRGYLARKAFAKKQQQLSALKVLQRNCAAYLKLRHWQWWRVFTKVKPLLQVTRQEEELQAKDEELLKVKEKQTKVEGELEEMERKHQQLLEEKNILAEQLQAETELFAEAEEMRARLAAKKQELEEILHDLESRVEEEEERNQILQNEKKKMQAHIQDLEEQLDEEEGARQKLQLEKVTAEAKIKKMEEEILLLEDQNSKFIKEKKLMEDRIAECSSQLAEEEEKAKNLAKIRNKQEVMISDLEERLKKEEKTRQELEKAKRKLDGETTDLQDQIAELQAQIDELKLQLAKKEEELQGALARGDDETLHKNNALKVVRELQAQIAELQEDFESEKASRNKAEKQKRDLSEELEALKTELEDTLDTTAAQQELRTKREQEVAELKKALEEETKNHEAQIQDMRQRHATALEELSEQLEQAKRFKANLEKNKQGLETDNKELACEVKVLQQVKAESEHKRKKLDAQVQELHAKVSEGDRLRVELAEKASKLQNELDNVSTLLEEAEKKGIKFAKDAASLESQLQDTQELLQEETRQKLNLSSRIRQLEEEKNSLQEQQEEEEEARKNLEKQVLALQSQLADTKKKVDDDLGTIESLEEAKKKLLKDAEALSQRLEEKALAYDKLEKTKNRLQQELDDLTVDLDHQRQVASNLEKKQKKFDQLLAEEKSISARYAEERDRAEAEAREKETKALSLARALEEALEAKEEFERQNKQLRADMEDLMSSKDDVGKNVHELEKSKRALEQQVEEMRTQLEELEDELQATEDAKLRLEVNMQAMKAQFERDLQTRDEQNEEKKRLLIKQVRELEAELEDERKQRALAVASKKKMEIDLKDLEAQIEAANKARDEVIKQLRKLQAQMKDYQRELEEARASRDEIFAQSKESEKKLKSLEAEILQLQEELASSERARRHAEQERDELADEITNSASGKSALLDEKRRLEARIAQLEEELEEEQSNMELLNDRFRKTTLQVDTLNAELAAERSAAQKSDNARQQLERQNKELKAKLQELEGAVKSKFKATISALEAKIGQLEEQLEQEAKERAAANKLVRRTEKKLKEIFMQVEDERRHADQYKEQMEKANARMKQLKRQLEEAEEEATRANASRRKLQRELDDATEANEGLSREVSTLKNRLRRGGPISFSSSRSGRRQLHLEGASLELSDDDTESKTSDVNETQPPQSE
UniProt P35579, residues 2-1960: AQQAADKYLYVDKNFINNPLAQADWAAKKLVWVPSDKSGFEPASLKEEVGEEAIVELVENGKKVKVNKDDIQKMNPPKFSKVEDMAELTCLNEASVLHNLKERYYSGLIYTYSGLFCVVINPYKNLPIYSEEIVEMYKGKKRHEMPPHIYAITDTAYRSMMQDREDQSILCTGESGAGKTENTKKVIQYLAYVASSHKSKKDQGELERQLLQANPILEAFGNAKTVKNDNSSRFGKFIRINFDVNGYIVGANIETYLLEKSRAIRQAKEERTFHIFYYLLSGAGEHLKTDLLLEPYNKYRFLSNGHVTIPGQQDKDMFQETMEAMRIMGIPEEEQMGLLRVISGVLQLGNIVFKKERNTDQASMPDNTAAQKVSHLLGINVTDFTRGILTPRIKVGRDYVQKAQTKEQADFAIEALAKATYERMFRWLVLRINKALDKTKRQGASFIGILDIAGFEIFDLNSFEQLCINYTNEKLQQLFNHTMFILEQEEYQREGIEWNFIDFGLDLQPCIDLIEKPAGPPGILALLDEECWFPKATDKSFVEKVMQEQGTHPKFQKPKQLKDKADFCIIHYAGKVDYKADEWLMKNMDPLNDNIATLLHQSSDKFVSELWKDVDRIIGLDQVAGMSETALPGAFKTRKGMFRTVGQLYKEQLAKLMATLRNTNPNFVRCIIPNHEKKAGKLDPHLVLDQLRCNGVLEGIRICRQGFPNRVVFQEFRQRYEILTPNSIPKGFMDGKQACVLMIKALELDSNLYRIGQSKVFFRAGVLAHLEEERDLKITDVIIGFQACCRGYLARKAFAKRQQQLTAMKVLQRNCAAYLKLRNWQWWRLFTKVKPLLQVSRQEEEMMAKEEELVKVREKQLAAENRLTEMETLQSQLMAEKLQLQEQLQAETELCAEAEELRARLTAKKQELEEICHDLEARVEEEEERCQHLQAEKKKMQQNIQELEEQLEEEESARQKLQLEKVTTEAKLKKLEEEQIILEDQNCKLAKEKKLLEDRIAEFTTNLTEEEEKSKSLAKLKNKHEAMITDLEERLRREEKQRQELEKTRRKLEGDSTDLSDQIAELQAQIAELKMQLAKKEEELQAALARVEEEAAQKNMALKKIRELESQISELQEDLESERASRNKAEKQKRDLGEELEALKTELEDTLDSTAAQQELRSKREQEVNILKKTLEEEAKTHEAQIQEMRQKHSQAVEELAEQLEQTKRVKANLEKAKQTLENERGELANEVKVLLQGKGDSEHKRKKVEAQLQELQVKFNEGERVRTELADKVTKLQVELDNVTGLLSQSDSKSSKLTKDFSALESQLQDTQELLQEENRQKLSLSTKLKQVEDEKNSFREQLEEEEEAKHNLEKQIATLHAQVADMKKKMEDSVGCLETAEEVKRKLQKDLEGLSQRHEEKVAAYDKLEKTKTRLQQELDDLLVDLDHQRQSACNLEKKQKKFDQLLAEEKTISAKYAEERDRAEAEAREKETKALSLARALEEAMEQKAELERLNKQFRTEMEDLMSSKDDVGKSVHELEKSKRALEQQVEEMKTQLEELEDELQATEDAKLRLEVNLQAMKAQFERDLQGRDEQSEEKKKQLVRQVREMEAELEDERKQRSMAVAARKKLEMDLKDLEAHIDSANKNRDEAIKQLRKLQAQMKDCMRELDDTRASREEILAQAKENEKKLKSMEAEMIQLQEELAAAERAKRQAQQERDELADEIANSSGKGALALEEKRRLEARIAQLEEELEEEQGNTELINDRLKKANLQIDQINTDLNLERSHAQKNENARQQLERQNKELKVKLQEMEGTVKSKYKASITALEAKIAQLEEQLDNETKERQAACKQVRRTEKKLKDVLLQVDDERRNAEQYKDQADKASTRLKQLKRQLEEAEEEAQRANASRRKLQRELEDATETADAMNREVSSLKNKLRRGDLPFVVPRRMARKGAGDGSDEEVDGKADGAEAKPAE

Legend:
[1] = molecular target: nonmuscle myosin IIB (human) (UniProt P35580); assay: co-immunoprecipitation with anti-HA antibody, lysate treated with RNase A or untreated (legend of FIG. 2d)
[2] = molecular target: nonmuscle myosin IIA (human) (UniProt P35579); assay: co-immunoprecipitation with anti-HA antibody from human lung fibroblasts, Western blot with anti-myosin IIA
[3] = molecular target: nonmuscle myosin IIB (human) (UniProt P35580); assay: co-immunoprecipitation with anti-HA antibody from human lung fibroblasts, Western blot with anti-myosin IIB
[4] = molecular target: nonmuscle myosin IIB (human) (UniProt P35580); assay: co-immunoprecipitation of HA-tagged LARP6 from control and ML-7-treated lung fibroblasts (legend of FIG. 5b)
[5] = molecular target: nonmuscle myosin IIB (human) (UniProt P35580); assay: co-immunoprecipitation with anti-HA antibody, with or without RNase A digestion, Western blot with anti-myosin IIB
[6] = molecular target: nonmuscle myosin IIB (human) (UniProt P35580); assay: co-immunoprecipitation with anti-HA antibody from control and ML-7-treated lung fibroblasts, Western blot with anti-myosin IIB
[7] = molecular target: nonmuscle myosin IIB (human) (UniProt P35580); assay: co-immunoprecipitation of HA-tagged LARP6 from lung fibroblasts treated with cycloheximide or puromycin, Western blot with anti-myosin IIB

- binding [1]: binds
- binding [2]: binds
- binding [3]: binds
- binding [4]: binds
- binding [5]: binds
- binding [6]: binds
- binding [7]: binds
B1: HA-tagged full-size LARP6 (protein, not shown: small tags and cut ends)
chain: MAQSGGEARPGPKTAVQIRVAIQEAEDVDELEDEEEGAETRGAGDPARYLSPGWGSASEEEPSRGHSGTTASGGENEREDLEQEWKPPDEELIKKLVDQIEFYFSDENLEKDAFLLKHVRRNKLGYVSVKLLTSFKKVKHLTRDWRTTAHALKYSVVLELNEDHRKVRRTTPVPLFPNENLPSKMLLVYDLYLSPKLWALATPQKNGRVQEKVMEHLLKLFGTFGVISSVRILKPGRELPPDIRRISSRYSQVGTQECAIVEFEEVEAAIKAHEFMITESQGKENMKAVLIGMKPPKKKPAKDKNHDEEPTASIHLNKSLNKRVEELQYMGDESSANSSSDPESNPTSPMAGRRHAATNKLSPSGHQNLFLSPNASPCTSPWSSPLAQRKGVSRKSPLAEEGRLNCSTSPEIFRKCMDYSSDSSVTPSGSPWVRRRRQAEMGTQEKSPGTSPLLSRKMQTADGLPVGVLRLPRGPDNTRGFHGHERSRACV
